The values that follow come from the supplement of paper PMC12067093, “Discovery and optimisation of a covalent ligand for TRIM25 and its application to targeted protein ubiquitination” (Chemical Science, 2025).

The chains behind the UniProt entries cited, without tags or fusion partners. Where a name states a change or a piece, a line headed by the entry shows the natural chain unless it says otherwise.
UniProt Q5T8I3: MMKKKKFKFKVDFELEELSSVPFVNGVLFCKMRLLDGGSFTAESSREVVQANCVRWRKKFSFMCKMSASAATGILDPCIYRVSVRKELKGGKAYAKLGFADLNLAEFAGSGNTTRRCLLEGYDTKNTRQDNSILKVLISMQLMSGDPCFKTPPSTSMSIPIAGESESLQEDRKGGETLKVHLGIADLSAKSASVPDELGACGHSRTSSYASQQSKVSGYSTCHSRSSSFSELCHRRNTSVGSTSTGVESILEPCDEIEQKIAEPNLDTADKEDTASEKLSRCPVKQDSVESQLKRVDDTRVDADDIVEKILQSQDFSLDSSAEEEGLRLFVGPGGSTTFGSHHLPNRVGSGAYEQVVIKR
UniProt Q9NQT5, whole entry, looked up: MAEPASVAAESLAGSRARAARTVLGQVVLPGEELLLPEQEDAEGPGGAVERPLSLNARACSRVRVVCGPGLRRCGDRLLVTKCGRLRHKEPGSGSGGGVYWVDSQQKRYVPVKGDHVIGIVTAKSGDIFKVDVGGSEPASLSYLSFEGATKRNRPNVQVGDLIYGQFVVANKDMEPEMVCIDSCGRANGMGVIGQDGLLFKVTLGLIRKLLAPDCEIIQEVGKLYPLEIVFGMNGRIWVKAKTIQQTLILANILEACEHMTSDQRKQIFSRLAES
UniProt Q96HE7: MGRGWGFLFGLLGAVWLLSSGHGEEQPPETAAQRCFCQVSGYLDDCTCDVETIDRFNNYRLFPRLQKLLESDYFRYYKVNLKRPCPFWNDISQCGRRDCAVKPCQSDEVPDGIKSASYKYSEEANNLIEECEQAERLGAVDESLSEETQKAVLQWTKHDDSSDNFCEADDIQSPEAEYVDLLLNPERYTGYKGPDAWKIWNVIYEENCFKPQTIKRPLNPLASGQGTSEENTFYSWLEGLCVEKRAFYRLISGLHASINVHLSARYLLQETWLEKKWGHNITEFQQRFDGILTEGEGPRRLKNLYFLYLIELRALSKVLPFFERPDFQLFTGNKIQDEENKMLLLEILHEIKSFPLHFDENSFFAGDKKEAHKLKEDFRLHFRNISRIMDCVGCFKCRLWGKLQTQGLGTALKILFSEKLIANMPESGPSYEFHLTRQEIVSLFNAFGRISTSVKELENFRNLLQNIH
UniProt Q01469, whole entry, looked up: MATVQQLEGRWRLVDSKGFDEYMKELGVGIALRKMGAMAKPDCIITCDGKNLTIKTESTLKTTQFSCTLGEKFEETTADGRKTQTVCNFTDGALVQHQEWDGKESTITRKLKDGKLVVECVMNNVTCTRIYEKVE
UniProt Q96EK7: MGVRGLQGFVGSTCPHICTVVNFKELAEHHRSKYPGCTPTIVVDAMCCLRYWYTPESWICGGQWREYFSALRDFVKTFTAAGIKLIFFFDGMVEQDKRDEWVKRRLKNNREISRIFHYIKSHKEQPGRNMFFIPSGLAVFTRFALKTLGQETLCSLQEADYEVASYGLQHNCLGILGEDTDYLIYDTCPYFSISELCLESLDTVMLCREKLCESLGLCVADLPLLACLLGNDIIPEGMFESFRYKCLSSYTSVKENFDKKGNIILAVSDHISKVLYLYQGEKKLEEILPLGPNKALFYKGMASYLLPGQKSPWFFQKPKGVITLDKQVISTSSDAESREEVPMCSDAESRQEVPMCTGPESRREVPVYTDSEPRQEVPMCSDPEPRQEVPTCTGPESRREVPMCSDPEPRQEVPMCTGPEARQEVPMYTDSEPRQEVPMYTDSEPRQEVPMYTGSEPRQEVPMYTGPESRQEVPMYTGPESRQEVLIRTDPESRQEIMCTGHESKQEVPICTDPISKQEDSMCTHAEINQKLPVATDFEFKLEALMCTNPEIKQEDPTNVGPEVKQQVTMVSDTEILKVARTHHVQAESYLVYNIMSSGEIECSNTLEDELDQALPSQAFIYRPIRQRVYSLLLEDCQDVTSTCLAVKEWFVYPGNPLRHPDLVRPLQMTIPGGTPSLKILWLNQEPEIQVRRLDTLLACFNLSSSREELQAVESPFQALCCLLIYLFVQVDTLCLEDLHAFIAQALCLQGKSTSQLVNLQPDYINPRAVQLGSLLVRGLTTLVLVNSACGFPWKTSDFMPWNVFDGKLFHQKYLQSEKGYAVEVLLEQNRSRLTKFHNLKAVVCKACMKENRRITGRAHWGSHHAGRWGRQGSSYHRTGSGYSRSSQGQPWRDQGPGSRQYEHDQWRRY
UniProt Q56NI9: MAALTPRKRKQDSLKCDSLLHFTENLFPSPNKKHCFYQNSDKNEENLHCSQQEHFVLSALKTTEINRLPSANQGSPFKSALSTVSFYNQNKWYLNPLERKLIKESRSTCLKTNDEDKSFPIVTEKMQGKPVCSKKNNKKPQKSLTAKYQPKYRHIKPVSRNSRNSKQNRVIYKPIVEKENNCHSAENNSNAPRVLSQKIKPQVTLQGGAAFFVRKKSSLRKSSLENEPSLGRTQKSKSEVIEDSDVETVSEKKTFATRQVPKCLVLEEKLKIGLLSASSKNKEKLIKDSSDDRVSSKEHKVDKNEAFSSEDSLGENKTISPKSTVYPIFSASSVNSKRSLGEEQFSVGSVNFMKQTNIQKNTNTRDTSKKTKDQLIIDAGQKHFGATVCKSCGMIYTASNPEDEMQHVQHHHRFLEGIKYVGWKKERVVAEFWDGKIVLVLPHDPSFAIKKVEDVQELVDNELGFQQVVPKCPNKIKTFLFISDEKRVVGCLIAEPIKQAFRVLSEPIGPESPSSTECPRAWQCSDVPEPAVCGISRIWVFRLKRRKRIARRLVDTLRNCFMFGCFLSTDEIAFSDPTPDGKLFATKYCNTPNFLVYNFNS
UniProt Q96B26, whole entry, looked up: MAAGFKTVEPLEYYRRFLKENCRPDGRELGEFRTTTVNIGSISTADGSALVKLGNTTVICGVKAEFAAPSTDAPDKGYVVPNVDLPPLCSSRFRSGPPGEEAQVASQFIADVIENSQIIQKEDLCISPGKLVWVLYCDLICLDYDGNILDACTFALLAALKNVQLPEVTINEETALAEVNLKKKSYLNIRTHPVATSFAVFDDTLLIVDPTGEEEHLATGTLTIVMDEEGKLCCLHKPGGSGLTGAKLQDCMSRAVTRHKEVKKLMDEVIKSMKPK
UniProt Q9BZQ8: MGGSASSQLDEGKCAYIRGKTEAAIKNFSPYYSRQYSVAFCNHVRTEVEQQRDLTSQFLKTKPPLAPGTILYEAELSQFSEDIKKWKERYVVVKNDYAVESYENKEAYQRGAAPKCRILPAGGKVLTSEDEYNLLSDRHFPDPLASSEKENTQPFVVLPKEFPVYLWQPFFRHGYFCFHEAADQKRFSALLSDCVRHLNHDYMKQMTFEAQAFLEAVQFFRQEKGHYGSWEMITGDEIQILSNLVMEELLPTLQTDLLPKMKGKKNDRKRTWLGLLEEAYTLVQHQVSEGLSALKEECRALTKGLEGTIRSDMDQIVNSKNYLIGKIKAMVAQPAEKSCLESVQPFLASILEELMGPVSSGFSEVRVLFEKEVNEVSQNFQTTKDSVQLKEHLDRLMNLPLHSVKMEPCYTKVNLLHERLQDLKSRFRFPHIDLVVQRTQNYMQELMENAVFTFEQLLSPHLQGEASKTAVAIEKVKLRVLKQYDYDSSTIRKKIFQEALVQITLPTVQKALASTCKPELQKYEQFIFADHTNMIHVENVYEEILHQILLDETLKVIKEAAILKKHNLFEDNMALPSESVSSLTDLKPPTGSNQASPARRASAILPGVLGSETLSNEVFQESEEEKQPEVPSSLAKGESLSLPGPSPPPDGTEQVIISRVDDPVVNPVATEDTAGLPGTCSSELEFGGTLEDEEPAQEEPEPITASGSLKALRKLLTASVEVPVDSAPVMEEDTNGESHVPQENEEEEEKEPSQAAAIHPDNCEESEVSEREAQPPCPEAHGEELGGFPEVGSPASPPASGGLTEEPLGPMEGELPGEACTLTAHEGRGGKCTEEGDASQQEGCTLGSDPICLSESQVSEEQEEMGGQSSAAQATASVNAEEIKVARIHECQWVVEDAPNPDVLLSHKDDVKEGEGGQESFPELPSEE
UniProt O94905: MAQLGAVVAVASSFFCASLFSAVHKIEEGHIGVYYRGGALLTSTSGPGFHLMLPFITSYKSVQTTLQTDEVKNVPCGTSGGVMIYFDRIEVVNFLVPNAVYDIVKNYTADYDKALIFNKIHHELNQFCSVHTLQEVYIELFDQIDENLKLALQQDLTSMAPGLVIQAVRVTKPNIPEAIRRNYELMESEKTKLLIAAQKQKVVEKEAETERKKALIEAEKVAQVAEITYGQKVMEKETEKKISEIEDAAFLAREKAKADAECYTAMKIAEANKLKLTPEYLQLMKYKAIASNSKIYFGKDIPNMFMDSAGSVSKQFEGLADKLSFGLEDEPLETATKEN
UniProt Q8TAG9: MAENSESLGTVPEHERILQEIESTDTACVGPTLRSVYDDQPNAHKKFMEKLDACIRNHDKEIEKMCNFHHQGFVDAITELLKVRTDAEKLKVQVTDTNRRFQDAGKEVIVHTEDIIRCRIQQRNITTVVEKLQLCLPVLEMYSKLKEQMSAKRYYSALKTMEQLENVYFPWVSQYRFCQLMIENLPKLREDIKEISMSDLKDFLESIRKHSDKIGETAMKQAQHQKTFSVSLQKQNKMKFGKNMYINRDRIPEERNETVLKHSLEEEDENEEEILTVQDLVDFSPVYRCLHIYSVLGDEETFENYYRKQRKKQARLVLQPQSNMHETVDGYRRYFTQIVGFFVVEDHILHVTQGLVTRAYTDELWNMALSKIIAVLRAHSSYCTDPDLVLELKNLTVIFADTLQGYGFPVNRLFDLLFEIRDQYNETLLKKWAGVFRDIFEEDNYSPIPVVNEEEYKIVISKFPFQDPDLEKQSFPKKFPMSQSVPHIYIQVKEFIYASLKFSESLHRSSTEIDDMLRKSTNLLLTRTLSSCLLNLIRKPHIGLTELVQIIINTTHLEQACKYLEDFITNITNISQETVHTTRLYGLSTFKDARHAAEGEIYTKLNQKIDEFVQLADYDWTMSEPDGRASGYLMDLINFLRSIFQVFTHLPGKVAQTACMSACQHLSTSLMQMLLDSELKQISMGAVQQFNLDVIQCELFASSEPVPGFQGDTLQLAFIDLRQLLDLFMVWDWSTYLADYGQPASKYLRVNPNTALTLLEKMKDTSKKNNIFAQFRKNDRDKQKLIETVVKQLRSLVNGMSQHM
UniProt Q9BS26: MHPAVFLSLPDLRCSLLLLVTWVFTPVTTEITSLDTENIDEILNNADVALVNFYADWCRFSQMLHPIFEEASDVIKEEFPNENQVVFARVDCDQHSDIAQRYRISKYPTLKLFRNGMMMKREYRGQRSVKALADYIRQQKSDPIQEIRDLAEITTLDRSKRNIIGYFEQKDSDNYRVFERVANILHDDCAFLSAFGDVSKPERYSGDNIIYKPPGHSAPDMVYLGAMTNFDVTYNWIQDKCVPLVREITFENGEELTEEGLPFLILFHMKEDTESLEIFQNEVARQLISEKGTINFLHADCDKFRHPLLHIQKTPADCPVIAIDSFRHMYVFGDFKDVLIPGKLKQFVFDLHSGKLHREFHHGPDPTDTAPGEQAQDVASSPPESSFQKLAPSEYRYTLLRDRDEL
UniProt Q7Z2K6: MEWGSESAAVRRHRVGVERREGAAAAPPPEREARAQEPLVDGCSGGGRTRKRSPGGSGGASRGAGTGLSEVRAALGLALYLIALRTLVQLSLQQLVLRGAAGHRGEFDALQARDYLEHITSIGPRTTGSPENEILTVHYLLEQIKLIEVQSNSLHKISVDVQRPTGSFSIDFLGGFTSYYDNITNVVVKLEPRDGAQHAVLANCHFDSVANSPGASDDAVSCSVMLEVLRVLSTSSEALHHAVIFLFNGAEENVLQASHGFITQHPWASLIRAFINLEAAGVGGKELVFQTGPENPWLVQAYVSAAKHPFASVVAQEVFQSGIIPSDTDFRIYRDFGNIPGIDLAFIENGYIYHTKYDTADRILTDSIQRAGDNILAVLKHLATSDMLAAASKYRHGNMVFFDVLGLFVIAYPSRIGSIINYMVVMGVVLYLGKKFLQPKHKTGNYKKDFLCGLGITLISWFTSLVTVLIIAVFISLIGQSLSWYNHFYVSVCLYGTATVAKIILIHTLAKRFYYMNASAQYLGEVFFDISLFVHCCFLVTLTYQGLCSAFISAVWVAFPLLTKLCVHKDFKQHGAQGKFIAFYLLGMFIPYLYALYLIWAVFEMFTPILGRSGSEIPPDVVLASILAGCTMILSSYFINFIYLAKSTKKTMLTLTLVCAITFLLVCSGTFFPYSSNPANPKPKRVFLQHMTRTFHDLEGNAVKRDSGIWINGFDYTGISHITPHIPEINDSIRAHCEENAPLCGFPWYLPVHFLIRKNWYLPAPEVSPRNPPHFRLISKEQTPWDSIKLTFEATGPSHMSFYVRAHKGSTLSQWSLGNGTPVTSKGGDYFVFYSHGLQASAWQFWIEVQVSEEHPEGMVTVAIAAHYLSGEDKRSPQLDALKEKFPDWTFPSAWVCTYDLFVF

The list shows a part of the results.
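Note: competitive profiling in live THP-1 cells: cysteine peptides tagged with an iodoacetamide desthiobiotin (IA-DTB) probe, intensity after compound treatment relative to DMSO-treated cells.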

Compound in the experiment: Cc1cc(ccc1-c1ccccc1)C(=O)N1CCCN(CC1)C(=O)CCl [compound 10]
The experiment can be described thus: probe-labelled cysteine peptide fold change vs DMSO (competition) (log2 fold change); higher = less target engagement (more negative = stronger competition). To be noted: 10 µM; THP-1; incubation time: 4 h.
For the target “FAM102B_Q5T8I3_201_SASVPDELGACGHSR (UniProt Q5T8I3)”, the “probe-labelled cysteine peptide fold change” value was -0.256.

Regarding “EXOSC3_Q9NQT5_257_TIQQTLILANILEACEHMTSDQRK (UniProt Q9NQT5)”, the “probe-labelled cysteine peptide fold change” value was -0.0341.

Regarding “ERGIC3_Q9Y282_145_HELGKVEVTVFDPDSLDPDRCESCYGAEAEDIK (UniProt Q9Y282)”, the “probe-labelled cysteine peptide fold change” value is -0.183.

Turning to “ERO1A_Q96HE7_104_PCQSDEVPDGIK (UniProt Q96HE7)”, the “probe-labelled cysteine peptide fold change” value is -0.264.

As to “FABP5_Q01469_67_TTQFSCTLGEK (UniProt Q01469)”, the “probe-labelled cysteine peptide fold change” value was 0.268.

Regarding “FAM120B_Q96EK7_18_GLQGFVGSTCPHICTVVNFK (UniProt Q96EK7)”, the “probe-labelled cysteine peptide fold change” value was 0.197.

With “ESCO2_Q56NI9_182_ENNCHSAENNSNAPR (UniProt Q56NI9)”, the “probe-labelled cysteine peptide fold change” value came out at 0.25.

On to “ETV6_P41212_452_TDRLEHLESQELDEQIYQEDEC (UniProt P41212)”, for which the “probe-labelled cysteine peptide fold change” value was -0.294.

On to “ERLIN1_O75477_128_IHHELNQFCSAHTLQEVYIELFDQIDENLK (UniProt O75477)”, for which the “probe-labelled cysteine peptide fold change” value was 0.195.

Turning to “EXOSC3_Q9NQT5_257_TIQQTLILANILEACEHMTSDQR (UniProt Q9NQT5)”, the “probe-labelled cysteine peptide fold change” value stood at 0.196.

With “EXOSC8_Q96B26_125_EDLCISPGK (UniProt Q96B26)”, the “probe-labelled cysteine peptide fold change” value came to 0.496.

On to “FAM129A_Q9BZQ8_194_RFSALLSDCVR (UniProt Q9BZQ8)”, for which the “probe-labelled cysteine peptide fold change” value was -0.127.

For “ERCC5_P28715_550_NETHAEVLEQQNELCPYESK (UniProt P28715)”, the “probe-labelled cysteine peptide fold change” value is -0.452.

Turning to “ESCO2_Q56NI9_392_SCGMIYTASNPEDEMQHVQHHHR (UniProt Q56NI9)”, the “probe-labelled cysteine peptide fold change” value turned out to be 0.666.

For the target “EXOSC8_Q96B26_251_LQDCMSR (UniProt Q96B26)”, the “probe-labelled cysteine peptide fold change” value was -0.217.

“ERLIN2_O94905_262_AKADAECYTAMK (UniProt O94905)”: the “probe-labelled cysteine peptide fold change” value was -0.125.

For the target “EXOSC3_Q9NQT5_184_DMEPEMVCIDSCGR (UniProt Q9NQT5)”, the “probe-labelled cysteine peptide fold change” value is -0.0743.

As for “FAM102B_Q5T8I3_254_NTSVGSTSTGVESILEPCDEIEQK (UniProt Q5T8I3)”, the “probe-labelled cysteine peptide fold change” value is -0.0987.

Regarding “FAM129A_Q9BZQ8_891_IHECQWVVEDAPNPDVLLSHK (UniProt Q9BZQ8)”, the “probe-labelled cysteine peptide fold change” value was -0.215.

For “FAM118A_Q9NWS6_113_TGDAKPSFFQDCLMEVFDDLEQHIR (UniProt Q9NWS6)”, the “probe-labelled cysteine peptide fold change” value is 0.174.

Turning to “FAM120C_Q9NX05_745_AFLACMK (UniProt Q9NX05)”, the “probe-labelled cysteine peptide fold change” value was -0.0917.

With “EXOSC6_Q5RKV6_117_APPGGCEERELALALQEALEPAVR (UniProt Q5RKV6)”, the “probe-labelled cysteine peptide fold change” value was -0.5.

For “ERCC6L_Q2NKX8_356_NPDVDAICEMPSLSR (UniProt Q2NKX8)”, the “probe-labelled cysteine peptide fold change” value was -0.442.

Turning to “EXOC2_Q96KP1_388_WILQLMHSCK (UniProt Q96KP1)”, the “probe-labelled cysteine peptide fold change” value is -0.223.

For the target “EXOC6_Q8TAG9_532_TLSSCLLNLIR (UniProt Q8TAG9)”, the “probe-labelled cysteine peptide fold change” value came out at 0.197.

Regarding “FADD_Q13158_168_SCQMNLVADLVQEVQQAR (UniProt Q13158)”, the “probe-labelled cysteine peptide fold change” value was -0.313.

With “EXOSC8_Q96B26_89_GYVVPNVDLPPLCSSR (UniProt Q96B26)”, the “probe-labelled cysteine peptide fold change” value was -0.0137.

Turning to “FAM102B_Q5T8I3_64_FSFMCK (UniProt Q5T8I3)”, the “probe-labelled cysteine peptide fold change” value stood at 0.0594.

In the case of “ETNK1_Q9HBU6_307+313_EILSNLGSPVVLCHNDLLCK (UniProt Q9HBU6)”, the “probe-labelled cysteine peptide fold change” value was -0.0872.

As to “ESYT2_A0FGR8_181_ACDLPAWVHFPDTERAEWLNK (UniProt A0FGR8)”, the “probe-labelled cysteine peptide fold change” value is -0.209.

In the case of “ERP44_Q9BS26_301_GTINFLHADCDK (UniProt Q9BS26)”, the “probe-labelled cysteine peptide fold change” value is -0.0708.

As for “FADS1_O60427_407_VAPLVQSLCAK (UniProt O60427)”, the “probe-labelled cysteine peptide fold change” value is 0.0874.

Regarding “FAM120B_Q96EK7_344_QVISTSSDAESREEVPMCSDAESR (UniProt Q96EK7)”, the “probe-labelled cysteine peptide fold change” value was -0.278.

For “ERO1A_Q96HE7_85_RPCPFWNDISQCGR (UniProt Q96HE7)”, the “probe-labelled cysteine peptide fold change” value is -0.0936.

On to “ERCC4_Q92889_723_GIDIEPVTLEVGDYILTPEMCVER (UniProt Q92889)”, for which the “probe-labelled cysteine peptide fold change” value amounted to 0.0379.

Turning to “FABP5_Q01469_127_LVVECVMNNVTCTR (UniProt Q01469)”, the “probe-labelled cysteine peptide fold change” value was -0.0652.

On to “ERMP1_Q7Z2K6_737_AHCEENAPLCGFPWYLPVHFLIR (UniProt Q7Z2K6)”, for which the “probe-labelled cysteine peptide fold change” value was -0.0124.

On to “FAM102B_Q5T8I3_254_RNTSVGSTSTGVESILEPCDEIEQK (UniProt Q5T8I3)”, for which the “probe-labelled cysteine peptide fold change” value is -0.237.

Take “ESD_P10768_56_CPALYWLSGLTCTEQNFISK (UniProt P10768)”: the “probe-labelled cysteine peptide fold change” value turned out to be 0.193.

Consider “ERLIN2_O94905_262_ADAECYTAMK (UniProt O94905)”, for which the “probe-labelled cysteine peptide fold change” value is -0.183.
